Results as given in patent US7393864B2, “Use of ClC3 chloride channel blockers to modulate vascular tone” (University of Iowa Research Foundation, priority 1999, dated 2008).
At least one structure is not confirmed: it was looked up by name or label, or the drawing left a doubt.

Tested on: swelling-induced Cl ion current in cultured human aortic and coronary vascular smooth muscle cells
Assay: Whole-cell voltage-clamp of swelling-induced chloride current
Assay type: cell-based
Conditions: hypotonic conditions, whole-cell patch clamp; β-estradiol 10^−7 M, H-7 10^−5 M
Description: Electrophysiology. Chloride ion currents were measured from cultured human aortic and coronary vascular smooth muscle cells at room temperature (22-24° C. using standard whole-cell voltage-clamp techniques (Hamill et al., 1981; Lamb et al., 1994) and an Axopatch 200B patch-clamp amplifier driven by pClamp software (Axon Instruments). The hypotonic (250 mOsm/kg by freezing point depression) bath solution contained (mM): NaCl 125, MgCl2 2.5, CaCl2 2.5, HEPES 10, pH 7.2. Isotonic bath solution had the same ionic composition as the hypotonic solution except that the osmolality was adjusted to 300 mOsm/kg by adding mannitol. Pipette solution contained (mM): N′-methyl-D-glucamine chloride (NMDG—Cl) 135, EGTA 2, Mg-ATP 5, HEPES 10, pH 7.2 with osmolality adjusted to 300 mOsm/kg by adding mannitol. Thus, the chloride equilibrium potential remained 0 mV under both isotonic and hypotonic conditions. All components of the buffer solutions were obtained from Sigma. Pipette resistances were 3-5 MOhms.

In the case of `C[C@]12CC[C@@H]3c4ccc(O)cc4CC[C@H]3[C@@H]1CC[C@@H]2O` [β-estradiol], the “Effect on swelling-induced Cl current” value is reported as “did not inhibit but rather increased”.
